This is one part of the list.
Columns and labels:
Assay in all cases: log2 fold change, soluble protein after heating vs DMSO (PISA); higher = thermal stabilisation; K562 cells, 10 uM, 30 min; active = over 0.2 and 3.5 SD of the protein, either way, in both replicates (recomputed)
erlotinib = compound: C#Cc1cccc(Nc2ncnc3cc(OCCOC)c(OCCOC)cc23)c1 [erlotinib]
Summary of the method: (§1)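 K562 cells at 2×10^6 cells/mL were exposed to 10 μM compound for 30 min, then aliquots were heated for 3 min across 48°C-58°C, pooled, and extracted in PBS containing 0.5% NP-40 at 4°C. The supernatant after 21,000xg for 90 min was taken as soluble protein and measured by TMTpro 16plex LC-MS/MS with channel sums equalised. Thermal stability is reported relative to control samples, with values from duplicates. Fold changes are given on a log2 scale.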

Amino acid sequences for entries named in this document (tags omitted). A change or cut given only in a name is not applied to a line headed by its entry.
UniProt O95260: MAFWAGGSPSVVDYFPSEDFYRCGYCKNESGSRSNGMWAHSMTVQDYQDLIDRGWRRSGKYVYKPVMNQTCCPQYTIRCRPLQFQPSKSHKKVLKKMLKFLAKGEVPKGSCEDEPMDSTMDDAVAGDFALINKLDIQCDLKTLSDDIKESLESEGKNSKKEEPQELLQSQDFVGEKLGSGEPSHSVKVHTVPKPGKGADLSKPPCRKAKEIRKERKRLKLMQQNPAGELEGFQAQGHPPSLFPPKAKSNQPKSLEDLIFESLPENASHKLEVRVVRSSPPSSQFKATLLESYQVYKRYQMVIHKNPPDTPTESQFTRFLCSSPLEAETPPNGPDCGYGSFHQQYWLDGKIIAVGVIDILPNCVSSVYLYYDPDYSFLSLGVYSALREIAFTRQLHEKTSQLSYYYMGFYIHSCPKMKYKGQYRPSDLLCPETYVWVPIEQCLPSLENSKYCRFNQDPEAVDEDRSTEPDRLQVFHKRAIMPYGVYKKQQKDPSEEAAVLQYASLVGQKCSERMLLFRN
UniProt Q5T9A4: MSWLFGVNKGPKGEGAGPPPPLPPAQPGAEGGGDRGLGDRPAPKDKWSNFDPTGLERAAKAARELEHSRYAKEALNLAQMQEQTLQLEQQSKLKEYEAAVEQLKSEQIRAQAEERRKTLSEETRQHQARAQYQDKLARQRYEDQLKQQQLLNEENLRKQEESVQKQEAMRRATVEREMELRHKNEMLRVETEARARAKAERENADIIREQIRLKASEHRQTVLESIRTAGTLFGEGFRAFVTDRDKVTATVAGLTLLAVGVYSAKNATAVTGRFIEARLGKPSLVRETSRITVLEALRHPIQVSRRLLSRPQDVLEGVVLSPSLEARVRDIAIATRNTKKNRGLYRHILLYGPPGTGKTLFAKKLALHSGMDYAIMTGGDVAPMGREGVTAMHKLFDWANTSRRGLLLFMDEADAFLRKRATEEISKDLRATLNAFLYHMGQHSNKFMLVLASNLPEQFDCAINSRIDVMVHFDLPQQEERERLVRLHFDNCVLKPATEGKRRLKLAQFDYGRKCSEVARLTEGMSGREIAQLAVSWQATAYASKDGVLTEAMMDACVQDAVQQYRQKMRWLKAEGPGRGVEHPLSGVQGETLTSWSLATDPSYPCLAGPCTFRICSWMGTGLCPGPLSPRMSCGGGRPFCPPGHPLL
UniProt P56385: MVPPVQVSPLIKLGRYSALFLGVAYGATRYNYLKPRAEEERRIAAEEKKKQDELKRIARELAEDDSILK
UniProt Q9H2C2: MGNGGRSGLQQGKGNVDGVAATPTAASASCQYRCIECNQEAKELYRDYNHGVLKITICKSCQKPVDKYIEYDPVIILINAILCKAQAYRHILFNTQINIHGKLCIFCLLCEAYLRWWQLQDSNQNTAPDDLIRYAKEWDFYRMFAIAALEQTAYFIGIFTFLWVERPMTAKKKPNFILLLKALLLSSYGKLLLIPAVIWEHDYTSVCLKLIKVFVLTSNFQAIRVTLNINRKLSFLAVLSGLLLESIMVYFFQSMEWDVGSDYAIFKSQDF
UniProt Q9NVT9: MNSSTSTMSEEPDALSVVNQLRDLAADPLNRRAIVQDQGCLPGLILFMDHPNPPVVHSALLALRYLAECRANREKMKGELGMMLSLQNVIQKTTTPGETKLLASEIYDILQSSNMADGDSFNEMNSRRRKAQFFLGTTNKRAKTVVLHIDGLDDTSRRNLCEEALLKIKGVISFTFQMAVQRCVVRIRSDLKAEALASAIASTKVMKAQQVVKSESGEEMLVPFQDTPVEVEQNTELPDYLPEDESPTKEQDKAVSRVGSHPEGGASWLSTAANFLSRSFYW
UniProt Q3SXY8: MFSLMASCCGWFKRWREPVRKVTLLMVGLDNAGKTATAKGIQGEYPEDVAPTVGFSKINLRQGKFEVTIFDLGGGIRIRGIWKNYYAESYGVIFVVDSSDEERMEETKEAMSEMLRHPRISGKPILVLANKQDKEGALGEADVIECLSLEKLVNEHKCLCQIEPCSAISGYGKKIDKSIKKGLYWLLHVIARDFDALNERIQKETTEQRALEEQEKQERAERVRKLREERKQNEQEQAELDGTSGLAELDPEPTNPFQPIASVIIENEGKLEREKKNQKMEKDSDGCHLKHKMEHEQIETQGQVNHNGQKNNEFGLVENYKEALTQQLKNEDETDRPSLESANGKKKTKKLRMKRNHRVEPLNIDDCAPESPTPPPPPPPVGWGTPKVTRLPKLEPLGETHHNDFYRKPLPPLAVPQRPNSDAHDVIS
UniProt P15289: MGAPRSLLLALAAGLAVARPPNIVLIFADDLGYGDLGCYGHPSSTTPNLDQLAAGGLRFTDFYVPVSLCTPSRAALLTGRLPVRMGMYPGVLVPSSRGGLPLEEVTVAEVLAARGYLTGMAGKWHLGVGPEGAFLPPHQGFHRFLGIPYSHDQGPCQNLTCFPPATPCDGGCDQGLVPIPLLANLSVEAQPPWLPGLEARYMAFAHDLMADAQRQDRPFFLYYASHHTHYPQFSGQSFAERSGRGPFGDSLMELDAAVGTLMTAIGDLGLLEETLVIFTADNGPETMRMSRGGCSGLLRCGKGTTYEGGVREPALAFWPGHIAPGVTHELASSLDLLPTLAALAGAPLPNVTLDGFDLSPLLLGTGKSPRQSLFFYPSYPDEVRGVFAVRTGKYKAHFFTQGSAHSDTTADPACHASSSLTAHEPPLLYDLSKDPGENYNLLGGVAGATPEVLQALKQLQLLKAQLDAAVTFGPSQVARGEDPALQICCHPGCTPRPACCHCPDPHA
UniProt Q9BSB4: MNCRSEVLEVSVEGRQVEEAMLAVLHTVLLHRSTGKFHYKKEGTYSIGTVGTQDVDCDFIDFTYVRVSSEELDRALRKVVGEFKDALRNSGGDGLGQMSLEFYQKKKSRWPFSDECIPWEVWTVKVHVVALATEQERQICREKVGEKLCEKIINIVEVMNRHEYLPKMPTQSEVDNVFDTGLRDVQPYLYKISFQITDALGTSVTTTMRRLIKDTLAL
UniProt O75143: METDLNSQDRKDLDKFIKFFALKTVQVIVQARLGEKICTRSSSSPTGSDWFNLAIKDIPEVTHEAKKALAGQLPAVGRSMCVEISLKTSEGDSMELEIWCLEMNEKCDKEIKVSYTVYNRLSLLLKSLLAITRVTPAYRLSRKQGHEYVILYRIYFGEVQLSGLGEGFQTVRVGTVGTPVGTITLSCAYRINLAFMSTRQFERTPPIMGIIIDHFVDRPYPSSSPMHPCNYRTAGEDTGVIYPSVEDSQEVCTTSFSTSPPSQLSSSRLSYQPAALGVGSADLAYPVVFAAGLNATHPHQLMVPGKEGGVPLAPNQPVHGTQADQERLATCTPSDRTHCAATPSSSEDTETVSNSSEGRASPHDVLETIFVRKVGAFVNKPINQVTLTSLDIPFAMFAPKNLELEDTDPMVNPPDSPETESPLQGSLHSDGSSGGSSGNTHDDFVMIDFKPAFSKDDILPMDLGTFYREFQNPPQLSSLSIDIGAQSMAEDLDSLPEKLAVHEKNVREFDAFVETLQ
UniProt Q2TAZ0: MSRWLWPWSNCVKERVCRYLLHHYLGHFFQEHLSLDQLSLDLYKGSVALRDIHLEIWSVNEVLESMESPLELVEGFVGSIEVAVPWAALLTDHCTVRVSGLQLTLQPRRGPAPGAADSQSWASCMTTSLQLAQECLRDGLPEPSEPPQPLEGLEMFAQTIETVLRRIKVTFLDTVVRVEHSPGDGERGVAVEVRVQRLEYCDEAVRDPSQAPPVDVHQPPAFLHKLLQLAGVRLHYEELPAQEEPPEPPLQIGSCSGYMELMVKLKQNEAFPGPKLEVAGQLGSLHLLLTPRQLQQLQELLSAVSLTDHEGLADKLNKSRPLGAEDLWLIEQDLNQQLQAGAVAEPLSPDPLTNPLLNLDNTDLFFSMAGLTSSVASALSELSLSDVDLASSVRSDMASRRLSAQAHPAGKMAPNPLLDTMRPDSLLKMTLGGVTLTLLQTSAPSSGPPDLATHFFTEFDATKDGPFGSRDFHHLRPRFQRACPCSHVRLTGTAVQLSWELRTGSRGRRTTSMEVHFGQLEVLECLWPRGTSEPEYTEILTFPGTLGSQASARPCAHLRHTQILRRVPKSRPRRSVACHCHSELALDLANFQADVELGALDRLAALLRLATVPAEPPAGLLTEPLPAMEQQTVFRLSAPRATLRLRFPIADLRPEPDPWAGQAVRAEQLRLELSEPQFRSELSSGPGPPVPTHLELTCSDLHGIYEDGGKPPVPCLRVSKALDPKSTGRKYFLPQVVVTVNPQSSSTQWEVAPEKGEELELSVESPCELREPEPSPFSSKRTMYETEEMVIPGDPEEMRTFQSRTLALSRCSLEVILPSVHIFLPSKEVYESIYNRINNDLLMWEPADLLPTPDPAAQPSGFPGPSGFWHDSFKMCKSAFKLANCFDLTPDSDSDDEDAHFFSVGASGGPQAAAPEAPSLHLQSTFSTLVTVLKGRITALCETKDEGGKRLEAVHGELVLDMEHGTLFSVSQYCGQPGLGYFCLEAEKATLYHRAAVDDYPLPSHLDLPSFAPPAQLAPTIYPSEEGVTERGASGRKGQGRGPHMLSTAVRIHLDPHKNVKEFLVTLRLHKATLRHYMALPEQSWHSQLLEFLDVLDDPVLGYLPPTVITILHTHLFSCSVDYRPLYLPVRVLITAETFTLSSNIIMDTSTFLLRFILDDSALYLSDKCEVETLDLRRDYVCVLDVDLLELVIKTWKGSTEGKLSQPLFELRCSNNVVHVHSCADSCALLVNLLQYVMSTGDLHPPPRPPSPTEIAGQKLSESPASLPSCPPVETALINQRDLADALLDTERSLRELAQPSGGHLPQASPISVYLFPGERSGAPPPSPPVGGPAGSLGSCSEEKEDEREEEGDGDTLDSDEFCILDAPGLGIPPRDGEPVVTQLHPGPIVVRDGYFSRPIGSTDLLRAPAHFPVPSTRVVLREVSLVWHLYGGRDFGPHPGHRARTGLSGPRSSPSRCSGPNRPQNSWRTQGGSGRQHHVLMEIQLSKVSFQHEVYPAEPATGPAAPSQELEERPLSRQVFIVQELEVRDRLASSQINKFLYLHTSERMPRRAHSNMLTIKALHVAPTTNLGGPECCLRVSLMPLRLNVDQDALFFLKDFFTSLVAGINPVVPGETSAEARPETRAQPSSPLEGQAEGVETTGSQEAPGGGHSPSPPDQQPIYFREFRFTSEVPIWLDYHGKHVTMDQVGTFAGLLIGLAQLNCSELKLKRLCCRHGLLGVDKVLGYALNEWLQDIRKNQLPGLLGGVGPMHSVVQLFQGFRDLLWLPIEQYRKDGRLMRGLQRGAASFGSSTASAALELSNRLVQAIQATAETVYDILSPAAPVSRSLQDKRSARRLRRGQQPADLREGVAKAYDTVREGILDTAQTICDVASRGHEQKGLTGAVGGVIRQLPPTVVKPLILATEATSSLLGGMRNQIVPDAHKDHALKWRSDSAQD
UniProt P06576, whole entry, looked up: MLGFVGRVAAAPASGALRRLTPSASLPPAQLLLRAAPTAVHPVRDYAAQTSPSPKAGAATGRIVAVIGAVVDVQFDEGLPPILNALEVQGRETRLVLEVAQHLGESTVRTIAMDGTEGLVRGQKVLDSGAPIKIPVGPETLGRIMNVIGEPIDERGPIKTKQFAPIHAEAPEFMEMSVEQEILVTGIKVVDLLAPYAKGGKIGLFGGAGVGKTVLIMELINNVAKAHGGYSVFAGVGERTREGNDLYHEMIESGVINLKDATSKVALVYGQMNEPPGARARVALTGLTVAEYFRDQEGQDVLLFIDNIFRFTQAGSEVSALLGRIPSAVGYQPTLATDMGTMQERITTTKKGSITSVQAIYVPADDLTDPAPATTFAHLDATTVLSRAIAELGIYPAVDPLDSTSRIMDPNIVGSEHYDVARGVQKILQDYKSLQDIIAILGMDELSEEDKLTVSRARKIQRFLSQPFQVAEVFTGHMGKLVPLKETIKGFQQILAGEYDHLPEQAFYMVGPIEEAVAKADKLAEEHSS
UniProt Q9H993: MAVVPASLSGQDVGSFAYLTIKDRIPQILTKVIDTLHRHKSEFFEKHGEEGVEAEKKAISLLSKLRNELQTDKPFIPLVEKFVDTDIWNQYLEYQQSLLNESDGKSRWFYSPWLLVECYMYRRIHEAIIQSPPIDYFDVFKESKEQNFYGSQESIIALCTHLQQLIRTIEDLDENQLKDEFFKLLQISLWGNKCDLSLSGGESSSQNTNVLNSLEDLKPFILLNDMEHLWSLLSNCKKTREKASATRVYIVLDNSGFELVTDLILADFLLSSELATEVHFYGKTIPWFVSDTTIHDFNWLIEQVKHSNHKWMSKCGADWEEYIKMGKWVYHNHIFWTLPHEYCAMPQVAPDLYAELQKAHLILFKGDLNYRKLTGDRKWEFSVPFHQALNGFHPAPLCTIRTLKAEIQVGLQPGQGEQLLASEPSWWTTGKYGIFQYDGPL
UniProt P48047: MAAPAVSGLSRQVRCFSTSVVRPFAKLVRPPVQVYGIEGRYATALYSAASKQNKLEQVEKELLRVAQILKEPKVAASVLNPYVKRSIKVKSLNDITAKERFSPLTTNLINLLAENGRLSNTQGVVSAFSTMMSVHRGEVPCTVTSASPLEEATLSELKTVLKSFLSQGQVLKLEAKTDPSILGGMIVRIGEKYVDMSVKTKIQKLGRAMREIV

[1] = compound: C/C(=N\NC(=O)C1=CC(=CC=C1)S(=O)(=O)N2CCOCC2)/C3=C(C=CC(=C3)Cl)O
Summary of the method: as §1

[2] = compound: C1=CC(=C(C=C1Cl)C2=NC3=NC=CN=C3C(=N2)NC4=CC=NC=C4)F
Summary of the method: as §1

[3] = compound: C1=CC(=CC=C1C2=NC3=C(N2)C=C(C=C3)C(=O)N)OC4=CC=C(C=C4)Cl
Summary of the method: as §1

[4] = compound: C1=CC2=C(C=CC(=C2)/C=C\3/C(=O)NC(=NCC4=CC=CS4)S3)N=C1
Summary of the method: as §1

[5] = compound: C1=CC2=NC=CN=C2C=C1/C=C/3\C(=O)NC(=O)S3
Summary of the method: as §1

[6] = compound: C1=CC=C(C=C1)C2=NC(=C(N2)C3=CC=NC=C3)C4=CC(=C(C=C4)Cl)O
Summary of the method: as §1

[7] = compound: C1=CC=C2C(=C1)C3=NNC4=CC=CC(=C43)C2=O
Summary of the method: as §1

[8] = compound: C1CCN(C1)C(=O)NC2=CC=CC(=C2)NC3=NC=C(C(=N3)NCCC4=CN=CN4)Br
Summary of the method: as §1

[9] = compound: C1CN(CCC1(CC2=CC=C(C=C2)Cl)N)C3=NC=NC4=C3C=CN4
Summary of the method: as §1

Target | log2 fold change (erlotinib) | log2 fold change [1] | log2 fold change [2] | log2 fold change [3] | log2 fold change [4] | log2 fold change [5] | log2 fold change [6] | log2 fold change [7] | log2 fold change [8] | log2 fold change [9]
ATP5IF1 (UniProt Q9UII2) | inactive: 0.001 | inactive: -0.122 | inactive: 0.032 | inactive: -0.005 | inactive: -0.104 | inactive: 0.007 | inactive: -0.051 | inactive: 0.153 | inactive: 0.053 | inactive: 0.032
ATE1 isoform 2 (UniProt O95260) | inactive: -0.059 | inactive: 0.034 | inactive: 0.007 | inactive: 0.024 | inactive: 0.03 | inactive: 0.037 | inactive: -0.076 | inactive: 0.03 | inactive: 0.021 | inactive: 0.049
ATAD3B (UniProt Q5T9A4) | inactive: -0.027 | inactive: -0.018 | inactive: -0.128 | inactive: -0.006 | inactive: -0.005 | inactive: -0.002 | inactive: -0.06 | inactive: 0.066 | inactive: 0.01 | inactive: -0.091
ATP5ME (UniProt P56385) | inactive: 0.013 | inactive: 0.037 | inactive: 0.136 | inactive: -0.007 | inactive: 0.085 | inactive: 0.051 | inactive: 0.023 | inactive: 0.002 | inactive: -0.051 | inactive: 0.013
ARPC3 (UniProt O15145) | inactive: -0.039 | inactive: 0.048 | inactive: 0.014 | inactive: -0.027 | inactive: -0.02 | inactive: -0.032 | inactive: 0.044 | inactive: 0.001 | inactive: -0.052 | inactive: -0.035
ARV1 (UniProt Q9H2C2) | inactive: -0.038 | inactive: 0.072 | inactive: 0.069 | inactive: 0.021 | inactive: 0.042 | inactive: 0 | inactive: 0.015 | inactive: -0.032 | inactive: 0.028 | inactive: 0.057
ATP11A (UniProt P98196) | inactive: -0.038 | inactive: 0.015 | inactive: 0.004 | inactive: 0.005 | inactive: -0.038 | inactive: 0.035 | inactive: -0.048 | inactive: -0.085 | inactive: -0.035 | inactive: 0.012
ARMC1 (UniProt Q9NVT9) | inactive: 0.004 | inactive: 0.039 | inactive: 0.044 | inactive: 0.003 | inactive: 0.022 | inactive: 0.038 | inactive: -0.009 | inactive: 0.022 | inactive: 0.002 | inactive: 0.003
ASAP1 isoform 2 (UniProt Q9ULH1) | inactive: 0.134 | inactive: 0.031 | inactive: 0.015 | inactive: -0.034 | inactive: 0.065 | inactive: -0.097 | inactive: -0.014 | inactive: 0.081 | inactive: -0.046 | inactive: -0.09
ARL13B (UniProt Q3SXY8) | inactive: -0.033 | inactive: -0.045 | inactive: -0.082 | inactive: -0.058 | inactive: -0.069 | inactive: 0.026 | inactive: 0.004 | inactive: 0.093 | inactive: -0.156 | inactive: 0.078
ASCC1 isoform 2 (UniProt Q8N9N2) | inactive: 0.024 | inactive: 0.028 | inactive: -0.077 | inactive: -0.016 | inactive: 0.023 | inactive: 0.046 | inactive: 0.004 | inactive: -0.012 | inactive: 0.038 | inactive: 0.065
ASPSCR1 isoform 2 (UniProt Q9BZE9) | inactive: 0.001 | inactive: 0.096 | inactive: -0.003 | inactive: 0.012 | inactive: 0.082 | inactive: -0.015 | inactive: -0.028 | inactive: 0.001 | inactive: -0.034 | inactive: -0.003
ARSA (UniProt P15289) | inactive: 0.094 | inactive: 0.011 | inactive: -0.129 | inactive: 0.103 | inactive: 0.016 | inactive: -0.015 | inactive: -0.082 | inactive: -0.044 | inactive: -0.057 | inactive: 0.123
ATP6V0A1 isoform 3 (UniProt Q93050) | inactive: -0.086 | inactive: -0.041 | inactive: -0.176 | inactive: 0.061 | inactive: 0 | inactive: -0.008 | inactive: -0.232 | inactive: 0.052 | inactive: -0.066 | inactive: -0.195
ARL1 (UniProt P40616) | inactive: 0.049 | inactive: 0.063 | inactive: 0.072 | inactive: -0.091 | inactive: 0.027 | inactive: -0.028 | inactive: 0.13 | inactive: 0.084 | inactive: -0.076 | inactive: 0.055
ASAH1 isoform 2 (UniProt Q13510) | inactive: -0.105 | inactive: -0.009 | inactive: 0.116 | inactive: 0.056 | inactive: -0.019 | inactive: 0 | inactive: 0.005 | inactive: -0.037 | inactive: -0.016 | inactive: 0.028
ASB6 (UniProt Q9NWX5) | inactive: -0.024 | active: -0.603 | inactive: -0.263 | inactive: -0.067 | inactive: 0.184 | inactive: -0.084 | inactive: 0.101 | inactive: -0.032 |  | 
ATG101 (UniProt Q9BSB4) | inactive: -0.041 | inactive: 0.04 | inactive: 0.036 | inactive: 0.016 | inactive: -0.011 | inactive: -0.055 | inactive: -0.012 | inactive: -0.048 | inactive: 0.084 | inactive: -0.257
ATF7 isoform 6 (UniProt P17544) | inactive: -0.011 | inactive: -0.148 | inactive: -0.043 | inactive: 0.021 | inactive: 0.032 | inactive: -0.055 | inactive: 0.08 | inactive: 0.085 | inactive: -0.004 | inactive: -0.117
ATG13 isoform 5 (UniProt O75143) | inactive: -0.017 | inactive: 0.011 | inactive: -0.069 | inactive: 0.007 | inactive: 0.037 | inactive: 0.059 | inactive: -0.033 | inactive: -0.071 | inactive: 0.011 | inactive: -0.054
ARPC1B (UniProt O15143) | inactive: -0.018 | inactive: 0.104 | inactive: 0.052 | inactive: -0.045 | inactive: -0.143 | inactive: -0.018 | inactive: 0.099 | inactive: 0.041 | inactive: -0.048 | inactive: 0.028
ATG2A isoform 3 (UniProt Q2TAZ0) | inactive: -0.003 | inactive: 0.032 | inactive: 0.059 | inactive: 0.014 | inactive: 0.062 | inactive: 0.011 | inactive: 0.009 | inactive: -0.037 | inactive: 0.035 | inactive: 0.088
ATP5F1B (UniProt P06576) | inactive: -0.01 | inactive: -0.01 | inactive: -0.001 | inactive: 0.004 | inactive: 0.017 | inactive: -0.003 | inactive: -0.026 | inactive: 0.007 | inactive: 0.01 | inactive: 0.029
ARMT1 (UniProt Q9H993) | inactive: 0.172 | inactive: 0.217 | inactive: -0.139 | inactive: -0.044 | inactive: 0.11 | inactive: -0.027 | inactive: -0.028 | inactive: -0.017 | inactive: 0.011 | inactive: -0.432
ARL8B (UniProt Q9NVJ2) | inactive: 0.013 | inactive: 0.031 | inactive: 0.019 | inactive: -0.007 | inactive: -0.018 | inactive: 0.022 | inactive: 0.025 | inactive: -0.014 | inactive: 0.025 | inactive: 0.056
ARSB (UniProt P15848) | inactive: 0.021 | inactive: 0 | inactive: 0.024 | inactive: -0.006 | inactive: 0.03 | inactive: 0.02 | inactive: 0.006 | inactive: -0.035 | inactive: 0.01 | inactive: -0.001
ARL2BP (UniProt Q9Y2Y0) | inactive: -0.048 | inactive: 0.014 | inactive: 0.041 | inactive: -0.02 | inactive: 0.093 | inactive: 0.104 | inactive: 0.037 | inactive: -0.047 | inactive: -0.008 | inactive: -0.072
ATP5PO (UniProt P48047) | inactive: -0.045 | inactive: -0.05 | inactive: 0.055 | inactive: -0.012 | inactive: -0.025 | inactive: -0.021 | inactive: -0.001 | inactive: 0.007 | inactive: 0.04 | inactive: 0.043
ARL3 (UniProt P36405) | inactive: -0.009 | inactive: 0.007 | inactive: 0.033 | inactive: -0.037 | inactive: 0.046 | inactive: 0.007 | inactive: 0.019 | inactive: -0.015 | inactive: -0.026 | inactive: 0.041
ATP6V1B2 (UniProt P21281) | inactive: -0.004 | inactive: 0.007 | inactive: -0.004 | inactive: 0.018 | inactive: -0.025 | inactive: 0.007 | inactive: -0.102 | inactive: 0.022 | inactive: -0.031 | inactive: 0.011

5 entries from above, as a markdown table.

| Target | log2 fold change (erlotinib) | log2 fold change [1] | log2 fold change [2] | log2 fold change [3] | log2 fold change [4] | log2 fold change [5] | log2 fold change [6] | log2 fold change [7] | log2 fold change [8] | log2 fold change [9] |
| --- | --- | --- | --- | --- | --- | --- | --- | --- | --- | --- |
| ATP5IF1 (UniProt Q9UII2) | inactive: 0.001 | inactive: -0.122 | inactive: 0.032 | inactive: -0.005 | inactive: -0.104 | inactive: 0.007 | inactive: -0.051 | inactive: 0.153 | inactive: 0.053 | inactive: 0.032 |
| ASCC1 isoform 2 (UniProt Q8N9N2) | inactive: 0.024 | inactive: 0.028 | inactive: -0.077 | inactive: -0.016 | inactive: 0.023 | inactive: 0.046 | inactive: 0.004 | inactive: -0.012 | inactive: 0.038 | inactive: 0.065 |
| ASPSCR1 isoform 2 (UniProt Q9BZE9) | inactive: 0.001 | inactive: 0.096 | inactive: -0.003 | inactive: 0.012 | inactive: 0.082 | inactive: -0.015 | inactive: -0.028 | inactive: 0.001 | inactive: -0.034 | inactive: -0.003 |
| ASB6 (UniProt Q9NWX5) | inactive: -0.024 | active: -0.603 | inactive: -0.263 | inactive: -0.067 | inactive: 0.184 | inactive: -0.084 | inactive: 0.101 | inactive: -0.032 |  |  |
| ARSB (UniProt P15848) | inactive: 0.021 | inactive: 0 | inactive: 0.024 | inactive: -0.006 | inactive: 0.03 | inactive: 0.02 | inactive: 0.006 | inactive: -0.035 | inactive: 0.01 | inactive: -0.001 |
